In doi:10.1101/2020.05.14.096990 one finds binding data, which are given here for one substance.

Amino acid sequences for entries named in this document (tags omitted). Residues count along the entry.
UniProt P48614, residues 29-389: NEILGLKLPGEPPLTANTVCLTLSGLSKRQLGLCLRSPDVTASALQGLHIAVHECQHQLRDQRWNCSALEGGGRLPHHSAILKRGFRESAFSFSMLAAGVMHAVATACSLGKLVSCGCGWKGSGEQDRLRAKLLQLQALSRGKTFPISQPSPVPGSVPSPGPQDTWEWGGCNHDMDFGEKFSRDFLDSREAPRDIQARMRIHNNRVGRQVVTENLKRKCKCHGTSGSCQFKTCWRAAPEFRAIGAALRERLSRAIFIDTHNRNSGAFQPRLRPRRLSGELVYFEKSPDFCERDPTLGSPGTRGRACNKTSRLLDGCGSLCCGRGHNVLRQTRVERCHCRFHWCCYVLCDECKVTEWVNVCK

Residue numbers refer to the chain shown, from its start. Results are given in words; binding and its absence hold for the method and conditions named. In cells and extracts the contact can be indirect. Some binding calls cover weakened binding; strength is not graded here.

Assay [1] deals with T1, FSTL1 glycosylation-mutant (MT: N142/173/178Q) (UniProt Q62356).
T1 sequence: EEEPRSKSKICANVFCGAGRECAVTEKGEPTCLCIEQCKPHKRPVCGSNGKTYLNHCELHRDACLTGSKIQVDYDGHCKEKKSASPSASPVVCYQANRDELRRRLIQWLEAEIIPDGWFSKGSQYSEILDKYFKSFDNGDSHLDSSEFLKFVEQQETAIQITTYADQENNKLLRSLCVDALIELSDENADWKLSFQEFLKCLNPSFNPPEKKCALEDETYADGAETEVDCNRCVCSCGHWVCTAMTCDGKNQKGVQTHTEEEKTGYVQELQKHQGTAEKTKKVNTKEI
The assay can be described thus: co-IP.

Assay [2] deals with T2, FSTL1 wildtype (follistatin like 1) (UniProt Q62356).
T2 sequence: T1 sequence with Q124N, Q155N, Q160N
The assay can be described thus: co-IP.

With WNT10B (from UniProt P48614 29-389), the binding result in assay [1] and in assay [2] was “binds” in each case.
